The record followed here is US20210347816A1.

The test concerns the target kappa light chains of human antibodies (human) (UniProt P0DOX7). The test can be described thus: ELISA screening of VHH clones on human antibodies. (An ELISA detects its analyte on a solid surface through an enzyme-linked reagent.)

Positions count from the first letter of the chain named. No constants are given. Whether binding was seen depends on the method and setting. Some entries that bind do so weakly or less than the wild type.

B1: SEQ ID NO 11 (VHH)
VHH: QVQLQDSGGGLVQAGGSLRLSCAASGRIFSTHTMAWFRQAPGQEREFVSSISWNGAVTNYLDSVKGRFTISKDNAKNTVYLQMNSLKPEDTAVYYCAAGRNWGQGTQVTVSS
With B1, the binding result is given as “binds”.

B2: SEQ ID NO 7 (VHH)
VHH: QVQLQESGGGLVQAGGSLRLSCVASGSIFSVDIMYWYRQAPGKQRERVGSMYSDGTTTYVDSVKGRFTISRGDSTDNAKRITYLQMNNLQPEDTAVYYCAAWAGSFYWGSGTQVTVSS
Take B2: the binding result is listed as “binds”.

B3: SEQ ID NO 9 (VHH)
VHH: B2 VHH with G49A, Y52F, N88S, S110Q
Consider B3, for which the binding result is reported as “binds”.

B4: SEQ ID NO 8 (VHH)
VHH: QVQLQDSGGGLVQAGGSLRLSCAASGRTFSGYSVAWFRQVPGKERELVASINRSGDNTYIEDSVKGRFTISTDNTKSTIYLQLNALKPEDTAVYYCAAPYGLGRYDSWGQGTQVTVSS
For B4, the binding entry is recorded as “binds”.

B5: SEQ ID NO 10 (VHH)
VHH: QVQLQDSGGGLVQAGGSLRLSCAASSRTFSVYTVAWFRQTPGGKEREFVAQINWNGDSTNYADSVKGRFTVSRDNVKNTVFLQMSTLKPEDTAVYYCAAGSNWGQGTQVTVSS
For the molecule B5, the binding result was “binds”.

B6: SEQ ID NO 12 (VHH)
VHH: QVQLQESGGGLVQAGGSLRLSCAASGRTFRNYAMAWFRQAPGKEREFVAVIRRGGGDTYYSDSAEGRFTISRDNAKNTVYLQMNNLKPEDTAVYYCAADVSDDNTGKYDYWGQGTQVTVSS
Turning to B6, the binding result was “binds”.

B7: SEQ ID NO 2 (VHH)
VHH: QVQLQESGGGLVQAGGSLRLSCEATGLTFSGVAMAWFRQAPGKEREFVAIIRWSGSTTYYSDSAKGRFTISRDNAKNTVYLQMNSLKPEDTAVYYCAADPSDRFGEYDYWGRGTQVTVSS
Take B7: the binding entry was “binds”.

B8: SEQ ID NO 13 (VHH)
VHH: QVQLQESGGGLVQAGGSLRLSCAASGRTSSIHLMAWFRQAPGKEREFLASIIWTGGTTYYAGTTFYGDSAEGRFTISNDNARNTGYLQMNSLKPEDTAVYYCAATSLVNPTRYDYWGQGTQVTVSS
Regarding B8, the binding result was “binds”.

B9: SEQ ID NO 14 (VHH)
VHH: B8 VHH with L48V, V108E
For B9, the binding result was “binds”.

B10: SEQ ID NO 6 (VHH)
VHH: QVQLQESGGGLVQAGGSLRLSCAASDRYFSSHTMAWFRQAPGKEREFVARVDWSGGSTEYADSVKGRFTISKDNAKNTVYLQMDSLKPEDAAVYYCAAGPYWGQGTQVTVSS
With B10, the binding entry is given as “binds”.
